No constants are given. Whether binding was seen depends on the method and setting. Binding seen in cells or lysates may run through a third protein. Some results given as binding are weak or reduced against the parent protein; the word gives no strength. Where a sequence is shown, tags or fusion partners need not be part of it.
Biological target: T1, Cdc55 (regulatory subunit of the PP2A-Cdc55 phosphatase), Pk-tagged (S. cerevisiae) (UniProt Q00362)
T1 sequence: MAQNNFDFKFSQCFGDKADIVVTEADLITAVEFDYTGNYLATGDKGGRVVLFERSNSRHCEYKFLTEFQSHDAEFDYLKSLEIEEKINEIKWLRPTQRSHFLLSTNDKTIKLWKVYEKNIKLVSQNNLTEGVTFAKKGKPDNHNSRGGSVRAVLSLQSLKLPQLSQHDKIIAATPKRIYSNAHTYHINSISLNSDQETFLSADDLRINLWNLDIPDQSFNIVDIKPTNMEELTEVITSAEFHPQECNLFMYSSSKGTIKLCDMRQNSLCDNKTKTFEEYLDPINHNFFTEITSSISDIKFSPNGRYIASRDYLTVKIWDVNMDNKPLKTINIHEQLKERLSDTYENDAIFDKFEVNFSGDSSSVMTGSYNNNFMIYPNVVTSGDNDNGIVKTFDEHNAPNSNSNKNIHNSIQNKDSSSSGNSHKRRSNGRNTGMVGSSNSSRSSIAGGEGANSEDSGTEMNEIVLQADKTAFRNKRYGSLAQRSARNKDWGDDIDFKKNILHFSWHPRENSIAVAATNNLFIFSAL
Assay: co-IP

B1: Chs2 (chitin synthase II) (enzyme, UniProt P14180 1-963)
chain: MTRNPFMVEPSNGSPNRRGASNLSKFYANANSNSRWANPSEESLEDSYDQSNVFQGLPASPSRAALRYSPDRRHRTQFYRDSAHNSPVAPNRYAANLQESPKRAGEAVIHLSEGSNLYPRDNADLPVDPYHLSPQQQPSNNLFGSGRLYSQSSKYTMSTTSTTAPSLAEADDEKEKYLTSTTSYDDQSTIFSADTFNETKFELNHPTRQQYVRRANSESKRRMVSDLPPPSKKKALLKLDNPIPKGLLDTLPRRNSPEFTEMRYTACTVEPDDFLREGYTLRFAEMNRECQIAICITMYNEDKYSLARTIHSIMKNVAHLCKREKSHVWGPNGWKKVSVILISDGRAKVNQGSLDYLAALGVYQEDMAKASVNGDPVKAHIFELTTQVSINADLDYVSKDIVPVQLVFCLKEENKKKINSHRWLFNAFCPVLQPTVVTLVDVGTRLNNTAIYRLWKVFDMDSNVAGAAGQIKTMKGKWGLKLFNPLVASQNFEYKISNILDKPLESVFGYISVLPGALSAYRYRALKNHEDGTGPLRSYFLGETQEGRDHDVFTANMYLAEDRILCWELVAKRDAKWVLKYVKEATGETDVPEDVSEFISQRRRWLNGAMFAAIYAQLHFYQIWKTKHSVVRKFFLHVEFLYQFIQMLFSWFSIANFVLTFYYLAGSMNLVIKHGEALFIFFKYLIFCDLASLFIISMGNRPQGAKHLFITSMVILSICATYSLICGFVFAFKSLASGTESHKIFVDIVISLLSTYGLYFFSSLMYLDPWHMFTSSIQYFLTLPAFTCTLQIFAFCNTHDVSWGTKGSTQESKQLSKAIVVQGPDGKQIVETDWPQEVDKKFLEIKSRLKEPEFEESSGNEKQSKNDYYRDIRTRIVMIWMLSNLILIMSIIQVFTPQDTDNGYLIFILWSVAALAAFRVVGSMAFLFMKYLRIIVSYRNKVEGSGSWEVSKLDLPNVFHKKG
For B1, the binding was “binds”.
